Results are given in words; binding and its absence hold for the method and conditions named.

This is an account of results in paper doi:10.1101/2024.05.31.596839.

What all share (assay): ReLo
In one assay the target is T1, Aubergine (Drosophila) (UniProt O76922).
T1 sequence: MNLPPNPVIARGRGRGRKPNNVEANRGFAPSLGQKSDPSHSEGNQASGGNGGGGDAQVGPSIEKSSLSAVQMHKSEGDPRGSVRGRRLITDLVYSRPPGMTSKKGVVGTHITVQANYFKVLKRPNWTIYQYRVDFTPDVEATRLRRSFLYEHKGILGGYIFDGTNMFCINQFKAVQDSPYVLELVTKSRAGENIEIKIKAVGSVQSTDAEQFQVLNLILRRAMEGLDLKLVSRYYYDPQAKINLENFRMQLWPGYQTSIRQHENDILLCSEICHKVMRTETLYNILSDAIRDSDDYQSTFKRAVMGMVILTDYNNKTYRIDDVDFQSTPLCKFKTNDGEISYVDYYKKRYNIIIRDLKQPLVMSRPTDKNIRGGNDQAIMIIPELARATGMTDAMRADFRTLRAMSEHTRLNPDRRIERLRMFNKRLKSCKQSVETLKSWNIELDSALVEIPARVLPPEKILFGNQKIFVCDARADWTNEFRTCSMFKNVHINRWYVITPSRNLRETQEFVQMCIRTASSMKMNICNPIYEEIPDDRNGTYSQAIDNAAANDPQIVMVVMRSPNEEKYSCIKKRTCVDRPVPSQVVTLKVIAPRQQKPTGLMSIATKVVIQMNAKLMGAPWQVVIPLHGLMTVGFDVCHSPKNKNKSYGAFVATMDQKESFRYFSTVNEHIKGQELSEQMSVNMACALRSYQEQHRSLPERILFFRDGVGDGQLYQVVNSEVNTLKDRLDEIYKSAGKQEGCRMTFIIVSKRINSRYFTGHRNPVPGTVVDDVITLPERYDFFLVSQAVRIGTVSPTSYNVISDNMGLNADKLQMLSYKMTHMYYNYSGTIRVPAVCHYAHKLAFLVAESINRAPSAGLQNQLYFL

For the next assay, the target named is T2, Krimper (Drosophila) (UniProt A1ZAC4).
T2 sequence: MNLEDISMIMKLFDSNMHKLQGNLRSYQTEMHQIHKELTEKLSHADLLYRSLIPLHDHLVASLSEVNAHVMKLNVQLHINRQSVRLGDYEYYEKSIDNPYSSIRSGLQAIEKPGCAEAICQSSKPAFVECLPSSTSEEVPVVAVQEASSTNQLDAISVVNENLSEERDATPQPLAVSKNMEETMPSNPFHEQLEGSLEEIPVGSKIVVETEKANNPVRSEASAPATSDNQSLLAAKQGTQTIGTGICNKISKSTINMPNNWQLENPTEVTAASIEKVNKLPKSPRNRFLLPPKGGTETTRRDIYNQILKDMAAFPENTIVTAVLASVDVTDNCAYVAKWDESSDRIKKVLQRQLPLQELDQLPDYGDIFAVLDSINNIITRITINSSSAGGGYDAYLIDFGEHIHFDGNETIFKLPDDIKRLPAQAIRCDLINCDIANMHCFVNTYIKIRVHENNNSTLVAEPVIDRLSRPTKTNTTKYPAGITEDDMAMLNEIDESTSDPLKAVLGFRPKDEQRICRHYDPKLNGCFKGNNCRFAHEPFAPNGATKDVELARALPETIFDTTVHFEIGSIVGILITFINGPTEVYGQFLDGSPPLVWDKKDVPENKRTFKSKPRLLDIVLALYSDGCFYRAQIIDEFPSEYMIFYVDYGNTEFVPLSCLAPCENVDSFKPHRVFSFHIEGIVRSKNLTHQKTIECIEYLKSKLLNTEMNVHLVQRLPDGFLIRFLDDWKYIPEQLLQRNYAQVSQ

Assay [1] addresses T3, Aubergine (Drosophila), O76922.
T3 chain: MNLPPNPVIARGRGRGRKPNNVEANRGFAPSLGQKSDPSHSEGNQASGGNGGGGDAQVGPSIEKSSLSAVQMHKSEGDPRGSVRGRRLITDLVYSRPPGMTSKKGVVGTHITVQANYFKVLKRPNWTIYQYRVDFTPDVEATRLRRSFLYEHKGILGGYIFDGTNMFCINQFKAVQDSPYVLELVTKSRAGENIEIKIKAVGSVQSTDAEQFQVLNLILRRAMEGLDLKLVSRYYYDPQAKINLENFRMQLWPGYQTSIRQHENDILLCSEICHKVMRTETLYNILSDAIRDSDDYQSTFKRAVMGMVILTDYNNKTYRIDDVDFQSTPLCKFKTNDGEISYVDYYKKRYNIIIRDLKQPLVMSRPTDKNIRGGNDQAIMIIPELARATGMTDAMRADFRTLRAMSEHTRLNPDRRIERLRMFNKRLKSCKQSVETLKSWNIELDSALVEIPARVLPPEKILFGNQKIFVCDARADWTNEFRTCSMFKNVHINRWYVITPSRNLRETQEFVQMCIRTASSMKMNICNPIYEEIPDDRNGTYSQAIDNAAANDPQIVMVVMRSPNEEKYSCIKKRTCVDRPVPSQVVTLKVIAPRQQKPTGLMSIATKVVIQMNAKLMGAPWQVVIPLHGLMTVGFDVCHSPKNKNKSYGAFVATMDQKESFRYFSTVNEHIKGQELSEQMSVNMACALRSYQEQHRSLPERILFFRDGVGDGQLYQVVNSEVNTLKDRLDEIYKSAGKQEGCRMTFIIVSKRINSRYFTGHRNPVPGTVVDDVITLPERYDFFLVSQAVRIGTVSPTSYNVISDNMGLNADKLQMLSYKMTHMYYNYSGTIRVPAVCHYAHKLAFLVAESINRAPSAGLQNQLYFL
Conditions: remark: other sources report otherwise.

Assay [2] deals with T4, Spindle E (Drosophila), Q9VF26.
T4 chain: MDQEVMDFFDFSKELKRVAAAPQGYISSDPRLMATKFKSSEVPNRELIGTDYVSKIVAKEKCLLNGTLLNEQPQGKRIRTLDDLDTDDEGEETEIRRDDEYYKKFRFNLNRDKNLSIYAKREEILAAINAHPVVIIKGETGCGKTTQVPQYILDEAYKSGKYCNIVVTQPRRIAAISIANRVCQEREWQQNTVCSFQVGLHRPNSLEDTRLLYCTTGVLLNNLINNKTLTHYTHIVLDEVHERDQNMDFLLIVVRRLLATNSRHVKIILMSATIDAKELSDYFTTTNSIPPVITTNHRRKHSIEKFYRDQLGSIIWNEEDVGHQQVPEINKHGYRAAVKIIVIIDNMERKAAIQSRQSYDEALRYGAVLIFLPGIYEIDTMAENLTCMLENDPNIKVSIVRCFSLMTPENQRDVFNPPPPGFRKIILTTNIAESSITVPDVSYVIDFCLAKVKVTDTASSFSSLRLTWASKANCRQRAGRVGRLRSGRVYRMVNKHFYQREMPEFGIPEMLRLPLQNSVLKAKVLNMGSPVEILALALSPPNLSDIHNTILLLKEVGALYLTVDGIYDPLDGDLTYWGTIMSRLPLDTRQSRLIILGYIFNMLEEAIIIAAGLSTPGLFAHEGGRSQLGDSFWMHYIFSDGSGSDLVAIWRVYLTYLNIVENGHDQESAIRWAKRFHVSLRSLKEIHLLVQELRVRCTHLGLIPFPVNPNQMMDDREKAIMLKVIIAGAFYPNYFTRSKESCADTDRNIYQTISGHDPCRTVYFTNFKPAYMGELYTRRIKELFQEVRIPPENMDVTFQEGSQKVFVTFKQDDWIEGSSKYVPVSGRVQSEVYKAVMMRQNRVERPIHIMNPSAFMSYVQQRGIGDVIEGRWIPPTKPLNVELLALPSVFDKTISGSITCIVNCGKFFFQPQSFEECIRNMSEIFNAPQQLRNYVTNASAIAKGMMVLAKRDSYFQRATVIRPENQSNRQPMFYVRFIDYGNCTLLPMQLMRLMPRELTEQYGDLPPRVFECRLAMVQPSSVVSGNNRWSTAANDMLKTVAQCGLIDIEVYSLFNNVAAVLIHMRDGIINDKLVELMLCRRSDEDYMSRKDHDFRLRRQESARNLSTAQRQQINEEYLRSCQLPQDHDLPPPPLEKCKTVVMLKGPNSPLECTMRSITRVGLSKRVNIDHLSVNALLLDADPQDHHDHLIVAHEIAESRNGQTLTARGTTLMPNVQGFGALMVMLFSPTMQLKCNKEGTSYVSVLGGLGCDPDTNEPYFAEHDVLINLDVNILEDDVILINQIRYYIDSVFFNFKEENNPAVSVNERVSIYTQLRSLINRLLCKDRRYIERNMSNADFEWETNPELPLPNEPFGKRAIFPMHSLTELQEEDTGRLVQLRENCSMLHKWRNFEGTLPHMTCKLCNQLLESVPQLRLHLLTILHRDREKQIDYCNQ
Conditions: remark: other sources report otherwise.

B1: Maelstrom (protein, UniProt Q9VNS0 1-459)
chain: MAPKKHSGFMMFVNEWRNRNAEGRRMTLAQAVSHCGTIWEKMNTQQRGPYNSGGKDANVAQRAKRESSNGHGQVDKAQREATESLMDMKRTIERLVLNAKMSHDLENAKFVFVAFNYFTKALTTDVYVPAEFAACEYSLKEGIRSIYSTMIDPGQIIFGQGSDALLHSSTTHDLPLPPNALGEKNMTKLYRNIVDYLSKCQGKGKTLVVFTPAENITMVKSCFRYLECDDDFRDGGEKIQVFDIQYLLFILKKEVMNVADLNDEKINKFATDAFFKKDFFEFTAGIACQYHEDNDRTKYCTQSMVTRWAYTFTDFMCGDLAITVQPGKHIPAQTKPNYLIISSYASSLDHESSFDSFYSLPGSGVKKESQPEACSLSSSRLSVASSSYKPIDHTSFAANLNEVSEFPSLGMRNSSKHHGIAASAQREWNARNLPTHSRLIRKVSDNDFSVNGADGKLKK
B1: the binding entry with Aubergine (Drosophila) and with Krimper (Drosophila) was “no binding” each time.

B2: Vasa, P09052 1-661 (protein)
chain: MSDDWDDEPIVDTRGARGGDWSDDEDTAKSFSGEAEGDGVGGSGGEGGGYQGGNRDVFGRIGGGRGGGAGGYRGGNRDGGGFHGGRREGERDFRGGEGGFRGGQGGSRGGQGGSRGGQGGFRGGEGGFRGRLYENEDGDERRGRLDREERGGERRGRLDREERGGERGERGDGGFARRRRNEDDINNNNNIVEDVERKREFYIPPEPSNDAIEIFSSGIASGIHFSKYNNIPVKVTGSDVPQPIQHFTSADLRDIIIDNVNKSGYKIPTPIQKCSIPVISSGRDLMACAQTGSGKTAAFLLPILSKLLEDPHELELGRPQVVIVSPTRELAIQIFNEARKFAFESYLKIGIVYGGTSFRHQNECITRGCHVVIATPGRLLDFVDRTFITFEDTRFVVLDEADRMLDMGFSEDMRRIMTHVTMRPEHQTLMFSATFPEEIQRMAGEFLKNYVFVAIGIVGGACSDVKQTIYEVNKYAKRSKLIEILSEQADGTIVFVETKRGADFLASFLSEKEFPTTSIHGDRLQSQREQALRDFKNGSMKVLIATSVASRGLDIKNIKHVINYDMPSKIDDYVHRIGRTGRVGNNGRATSFFDPEKDRAIAADLVKILEGSGQTVPDFLRTCGAGGDGGYSNQNFGGVDVRGRGNYVGDATNVEEEEQWD
With B2, the binding result in assay [1] and in assay [2] was “no binding” throughout.
